At least one structure is not confirmed: it was looked up by name or label, or the drawing left a doubt.
System: PCP-induced reversal learning deficit
Experiment: PCP-induced reversal learning task in rats
Format: in vivo, rat
From the text: Antipsychotic drugs: BL-1020 (perphenazine 4-aminobutyrate, mesylate salt; BioLineRx Ltd., Israel; administered per os); risperidone (Sigma, UK; administered intra-peritoneally); and perphenazine (Sigma, Israel; administered per os).
GABAA antagonists: picrotoxin (Sigma, UK; administered intra-peritoneally); and bicuculline (Sigma, UK; administered intra-peritoneally).
Female hooded-Lister rats (Charles River, UK) were housed in groups of five under standard laboratory conditions under a 12 hr diurnal cycle. Rats were maintained at approx 85% of free-feeding body weight average (250 grams) for the duration of the study.
Following habituation to the operant chambers, rats were trained to respond for food on an FR1 (Fixed Ratio 1) schedule of reinforcement with active levers active, as described by Abdul-Monim et al. (J. Psychopharmacology 17: 57-65, 2003). […] Each session lasted 20 minutes and counts were recorded on each lever. […]
Following a 7 day drug (PCP)-free period the rats were treated with test agents (antipsychotic drugs and GABAA-receptor antagonists). Sixty minutes later the rats were exposed for five-minutes (“initial phase”) to the same contingency (cue position relative to active lever) as was during the operant training session and their responses (pressing on correct and incorrect levers) were recorded. […]

CN1CCc2cc3c(cc2[C@H]1[C@@H]1OC(=O)c2c1ccc1c2OCO1)OCO3 [bicuculline]
effect on BL-1020 improvement of PCP-induced reversal learning deficit (bicuculline 2 mg/kg co-administered with BL-1020 3 mg/kg, p<0.001): negated the BL-1020 effect | effect on PCP-induced reversal learning deficit (percent correct response) (bicuculline 1, 2 and 4 mg/kg intra-peritoneally): did not significantly improve
